From paper doi:10.1101/2025.03.30.646247
No constants are given. Whether binding was seen depends on the method and setting. In cells and extracts the contact can be indirect. Some binding calls cover weakened binding; strength is not graded here. Where a sequence is shown, tags or fusion partners need not be part of it.

Sequences of proteins named here, by UniProt entry; tags and fusion partners are left off.
UniProt Q9FIJ0: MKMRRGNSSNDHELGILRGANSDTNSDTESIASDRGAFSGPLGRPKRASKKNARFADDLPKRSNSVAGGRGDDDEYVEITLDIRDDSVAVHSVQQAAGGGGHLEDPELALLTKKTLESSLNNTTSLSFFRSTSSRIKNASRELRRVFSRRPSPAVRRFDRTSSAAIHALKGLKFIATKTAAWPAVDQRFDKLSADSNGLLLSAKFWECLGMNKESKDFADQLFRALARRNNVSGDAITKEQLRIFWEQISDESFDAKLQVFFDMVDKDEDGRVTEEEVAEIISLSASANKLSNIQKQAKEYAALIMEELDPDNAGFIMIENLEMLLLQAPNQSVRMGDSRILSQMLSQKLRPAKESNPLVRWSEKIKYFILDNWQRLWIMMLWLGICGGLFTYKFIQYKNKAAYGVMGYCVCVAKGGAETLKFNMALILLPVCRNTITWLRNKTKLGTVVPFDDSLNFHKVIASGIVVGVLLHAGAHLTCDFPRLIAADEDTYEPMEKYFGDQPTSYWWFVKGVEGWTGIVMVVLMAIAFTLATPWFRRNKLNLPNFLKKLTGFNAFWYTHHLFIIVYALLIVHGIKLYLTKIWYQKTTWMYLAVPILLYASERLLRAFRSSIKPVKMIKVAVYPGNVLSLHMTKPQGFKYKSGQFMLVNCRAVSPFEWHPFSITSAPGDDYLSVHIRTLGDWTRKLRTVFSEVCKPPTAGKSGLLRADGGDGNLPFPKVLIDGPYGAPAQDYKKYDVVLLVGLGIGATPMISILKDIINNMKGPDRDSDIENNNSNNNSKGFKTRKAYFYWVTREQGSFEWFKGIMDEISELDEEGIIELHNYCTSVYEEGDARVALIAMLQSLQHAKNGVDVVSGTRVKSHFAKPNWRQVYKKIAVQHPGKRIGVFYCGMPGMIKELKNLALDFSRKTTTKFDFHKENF

Columns and labels:
[1] = target: RbohD-YFP^C (Arabidopsis thaliana) (UniProt Q9FIJ0); assay: split reporter
[2] = target: RbohD-YFP (Arabidopsis thaliana) (UniProt Q9FIJ0); assay: co-IP

B1: CIPK6-YFP^N (enzyme, UniProt O65554 1-441)
chain: MVGAKPVENGSDGGSSTGLLHGRYELGRLLGHGTFAKVYHARNIQTGKSVAMKVVGKEKVVKVGMVDQIKREISVMRMVKHPNIVELHEVMASKSKIYFAMELVRGGELFAKVAKGRLREDVARVYFQQLISAVDFCHSRGVYHRDLKPENLLLDEEGNLKVTDFGLSAFTEHLKQDGLLHTTCGTPAYVAPEVILKKGYDGAKADLWSCGVILFVLLAGYLPFQDDNLVNMYRKIYRGDFKCPGWLSSDARRLVTKLLDPNPNTRITIEKVMDSPWFKKQATRSRNEPVAATITTTEEDVDFLVHKSKEETETLNAFHIIALSEGFDLSPLFEEKKKEEKREMRFATSRPASSVISSLEEAARVGNKFDVRKSESRVRIEGKQNGRKGKLAVEAEIFAVAPSFVVVEVKKDHGDTLEYNNFCSTALRPALKDIFWTSTPA
[1]
  binding: binds

B2: 10xcMyc-CIPK6 (enzyme, UniProt O65554 1-441)
chain: B1 chain
[2]
  binding: binds
